According to the supplement of paper PMC12819154, “High-throughput peptide-centric local stability assay extends protein–ligand identification to membrane proteins, tissues and bacteria” (Nature Structural & Molecular Biology, 2025):
This is one part of the list. Most entries show no effect beyond the scatter of the controls.

Amino acid sequences for entries named in this document (tags omitted). A change or cut given only in a name is not applied to a line headed by its entry.
UniProt Q02447: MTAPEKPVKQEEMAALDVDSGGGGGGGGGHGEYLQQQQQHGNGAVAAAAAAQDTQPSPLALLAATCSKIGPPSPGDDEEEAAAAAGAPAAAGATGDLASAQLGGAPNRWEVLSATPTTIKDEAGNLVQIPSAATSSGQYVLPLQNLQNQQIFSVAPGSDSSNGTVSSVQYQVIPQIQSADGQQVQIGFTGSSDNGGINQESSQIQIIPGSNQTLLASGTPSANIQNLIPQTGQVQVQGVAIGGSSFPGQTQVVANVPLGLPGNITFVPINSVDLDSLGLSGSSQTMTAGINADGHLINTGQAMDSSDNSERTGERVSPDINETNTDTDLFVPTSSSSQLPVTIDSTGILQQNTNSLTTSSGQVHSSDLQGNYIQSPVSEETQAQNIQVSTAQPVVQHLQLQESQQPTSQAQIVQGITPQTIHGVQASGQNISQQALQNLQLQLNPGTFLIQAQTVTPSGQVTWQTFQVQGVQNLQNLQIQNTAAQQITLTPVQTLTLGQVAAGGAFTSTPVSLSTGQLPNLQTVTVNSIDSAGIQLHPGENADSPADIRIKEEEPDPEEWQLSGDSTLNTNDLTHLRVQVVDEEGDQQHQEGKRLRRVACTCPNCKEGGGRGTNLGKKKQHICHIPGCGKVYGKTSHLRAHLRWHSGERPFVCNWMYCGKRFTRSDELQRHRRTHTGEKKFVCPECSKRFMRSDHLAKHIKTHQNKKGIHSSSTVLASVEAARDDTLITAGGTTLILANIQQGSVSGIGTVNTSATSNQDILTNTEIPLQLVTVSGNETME
UniProt Q12982: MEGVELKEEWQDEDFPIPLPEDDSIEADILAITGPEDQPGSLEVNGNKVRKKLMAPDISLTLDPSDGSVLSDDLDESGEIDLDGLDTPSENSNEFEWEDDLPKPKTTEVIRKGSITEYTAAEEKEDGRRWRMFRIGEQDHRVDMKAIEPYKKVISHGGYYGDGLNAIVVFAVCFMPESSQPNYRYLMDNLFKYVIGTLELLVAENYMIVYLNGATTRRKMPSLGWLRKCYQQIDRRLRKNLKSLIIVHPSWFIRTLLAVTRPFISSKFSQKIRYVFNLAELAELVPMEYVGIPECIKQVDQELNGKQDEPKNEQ
UniProt Q0ZGT2: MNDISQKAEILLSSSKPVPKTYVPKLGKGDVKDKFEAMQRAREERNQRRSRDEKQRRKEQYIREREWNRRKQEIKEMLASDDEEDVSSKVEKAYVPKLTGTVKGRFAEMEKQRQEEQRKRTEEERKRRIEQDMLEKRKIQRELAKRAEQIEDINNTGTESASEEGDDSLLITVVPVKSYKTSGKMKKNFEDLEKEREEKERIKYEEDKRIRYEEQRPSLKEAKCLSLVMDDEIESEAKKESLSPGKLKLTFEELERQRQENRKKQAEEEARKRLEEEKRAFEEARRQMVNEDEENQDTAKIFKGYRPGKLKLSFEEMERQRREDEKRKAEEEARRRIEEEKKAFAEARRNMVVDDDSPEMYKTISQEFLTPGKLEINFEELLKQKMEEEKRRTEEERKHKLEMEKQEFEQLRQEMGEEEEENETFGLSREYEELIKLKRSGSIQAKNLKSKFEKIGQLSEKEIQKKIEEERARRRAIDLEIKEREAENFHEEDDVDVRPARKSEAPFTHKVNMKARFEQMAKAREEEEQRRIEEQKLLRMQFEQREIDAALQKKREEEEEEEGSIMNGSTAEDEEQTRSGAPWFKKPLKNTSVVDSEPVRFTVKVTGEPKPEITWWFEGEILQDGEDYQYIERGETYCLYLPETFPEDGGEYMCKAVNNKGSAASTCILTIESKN
UniProt P98168: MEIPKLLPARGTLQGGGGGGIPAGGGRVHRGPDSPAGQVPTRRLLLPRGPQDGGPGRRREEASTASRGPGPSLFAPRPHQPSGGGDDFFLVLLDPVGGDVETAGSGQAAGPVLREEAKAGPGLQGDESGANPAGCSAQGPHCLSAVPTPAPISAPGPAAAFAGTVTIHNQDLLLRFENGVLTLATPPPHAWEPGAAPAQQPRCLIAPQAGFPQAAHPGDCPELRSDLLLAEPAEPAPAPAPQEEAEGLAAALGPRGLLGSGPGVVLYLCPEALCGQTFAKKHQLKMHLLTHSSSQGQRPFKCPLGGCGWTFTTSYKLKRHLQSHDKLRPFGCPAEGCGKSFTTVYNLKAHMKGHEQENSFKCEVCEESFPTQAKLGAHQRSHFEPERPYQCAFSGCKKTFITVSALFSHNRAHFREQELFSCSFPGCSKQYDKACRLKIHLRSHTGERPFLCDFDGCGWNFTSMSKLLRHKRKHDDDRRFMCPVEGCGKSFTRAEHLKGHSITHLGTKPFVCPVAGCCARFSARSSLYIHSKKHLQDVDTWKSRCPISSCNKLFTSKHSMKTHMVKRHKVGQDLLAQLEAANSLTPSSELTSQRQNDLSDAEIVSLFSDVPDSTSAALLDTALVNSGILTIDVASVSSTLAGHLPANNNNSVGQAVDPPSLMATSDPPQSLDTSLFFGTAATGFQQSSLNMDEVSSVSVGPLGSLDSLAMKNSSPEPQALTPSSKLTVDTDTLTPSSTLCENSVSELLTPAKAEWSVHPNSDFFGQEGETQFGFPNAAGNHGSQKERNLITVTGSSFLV
UniProt Q02086: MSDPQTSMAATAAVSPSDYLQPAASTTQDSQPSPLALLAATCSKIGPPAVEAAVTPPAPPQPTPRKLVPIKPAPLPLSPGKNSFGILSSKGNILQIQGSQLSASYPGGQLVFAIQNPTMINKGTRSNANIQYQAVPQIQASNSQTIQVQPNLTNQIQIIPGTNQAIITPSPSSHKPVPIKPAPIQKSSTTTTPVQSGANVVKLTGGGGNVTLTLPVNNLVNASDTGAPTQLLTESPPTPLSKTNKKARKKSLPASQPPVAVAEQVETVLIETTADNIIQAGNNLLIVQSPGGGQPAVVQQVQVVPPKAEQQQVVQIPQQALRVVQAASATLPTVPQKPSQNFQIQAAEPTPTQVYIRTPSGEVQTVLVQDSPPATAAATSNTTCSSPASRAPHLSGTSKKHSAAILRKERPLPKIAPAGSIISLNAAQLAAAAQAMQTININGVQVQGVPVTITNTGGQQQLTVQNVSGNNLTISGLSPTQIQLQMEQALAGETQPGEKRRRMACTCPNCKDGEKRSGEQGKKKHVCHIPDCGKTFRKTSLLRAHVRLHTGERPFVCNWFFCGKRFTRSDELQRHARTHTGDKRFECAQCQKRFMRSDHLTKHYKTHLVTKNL
UniProt Q03252: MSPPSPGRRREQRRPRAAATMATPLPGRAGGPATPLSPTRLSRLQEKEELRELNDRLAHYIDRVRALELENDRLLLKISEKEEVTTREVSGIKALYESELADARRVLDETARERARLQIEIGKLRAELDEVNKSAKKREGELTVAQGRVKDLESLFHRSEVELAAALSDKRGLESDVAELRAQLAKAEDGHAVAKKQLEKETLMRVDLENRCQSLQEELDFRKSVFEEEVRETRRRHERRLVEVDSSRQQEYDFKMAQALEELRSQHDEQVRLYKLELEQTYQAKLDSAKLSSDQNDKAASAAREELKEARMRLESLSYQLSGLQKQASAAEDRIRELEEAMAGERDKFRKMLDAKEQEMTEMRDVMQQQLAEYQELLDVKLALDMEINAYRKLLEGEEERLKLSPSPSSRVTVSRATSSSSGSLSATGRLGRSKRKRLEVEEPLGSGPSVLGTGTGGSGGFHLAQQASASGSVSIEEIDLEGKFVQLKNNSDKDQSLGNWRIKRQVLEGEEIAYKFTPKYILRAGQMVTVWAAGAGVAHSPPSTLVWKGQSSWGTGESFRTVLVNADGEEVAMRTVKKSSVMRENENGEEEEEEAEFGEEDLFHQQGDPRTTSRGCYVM
UniProt Q12905: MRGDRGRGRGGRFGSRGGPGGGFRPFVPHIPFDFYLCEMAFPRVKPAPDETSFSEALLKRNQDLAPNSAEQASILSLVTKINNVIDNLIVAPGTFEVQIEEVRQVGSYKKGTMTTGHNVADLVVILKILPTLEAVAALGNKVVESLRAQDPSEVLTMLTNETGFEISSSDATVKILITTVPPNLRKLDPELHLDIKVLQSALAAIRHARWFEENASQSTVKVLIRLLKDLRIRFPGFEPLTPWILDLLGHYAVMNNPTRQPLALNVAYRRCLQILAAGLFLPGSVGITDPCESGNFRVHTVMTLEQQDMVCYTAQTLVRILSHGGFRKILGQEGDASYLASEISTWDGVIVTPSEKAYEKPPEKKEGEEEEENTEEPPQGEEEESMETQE
UniProt P86452: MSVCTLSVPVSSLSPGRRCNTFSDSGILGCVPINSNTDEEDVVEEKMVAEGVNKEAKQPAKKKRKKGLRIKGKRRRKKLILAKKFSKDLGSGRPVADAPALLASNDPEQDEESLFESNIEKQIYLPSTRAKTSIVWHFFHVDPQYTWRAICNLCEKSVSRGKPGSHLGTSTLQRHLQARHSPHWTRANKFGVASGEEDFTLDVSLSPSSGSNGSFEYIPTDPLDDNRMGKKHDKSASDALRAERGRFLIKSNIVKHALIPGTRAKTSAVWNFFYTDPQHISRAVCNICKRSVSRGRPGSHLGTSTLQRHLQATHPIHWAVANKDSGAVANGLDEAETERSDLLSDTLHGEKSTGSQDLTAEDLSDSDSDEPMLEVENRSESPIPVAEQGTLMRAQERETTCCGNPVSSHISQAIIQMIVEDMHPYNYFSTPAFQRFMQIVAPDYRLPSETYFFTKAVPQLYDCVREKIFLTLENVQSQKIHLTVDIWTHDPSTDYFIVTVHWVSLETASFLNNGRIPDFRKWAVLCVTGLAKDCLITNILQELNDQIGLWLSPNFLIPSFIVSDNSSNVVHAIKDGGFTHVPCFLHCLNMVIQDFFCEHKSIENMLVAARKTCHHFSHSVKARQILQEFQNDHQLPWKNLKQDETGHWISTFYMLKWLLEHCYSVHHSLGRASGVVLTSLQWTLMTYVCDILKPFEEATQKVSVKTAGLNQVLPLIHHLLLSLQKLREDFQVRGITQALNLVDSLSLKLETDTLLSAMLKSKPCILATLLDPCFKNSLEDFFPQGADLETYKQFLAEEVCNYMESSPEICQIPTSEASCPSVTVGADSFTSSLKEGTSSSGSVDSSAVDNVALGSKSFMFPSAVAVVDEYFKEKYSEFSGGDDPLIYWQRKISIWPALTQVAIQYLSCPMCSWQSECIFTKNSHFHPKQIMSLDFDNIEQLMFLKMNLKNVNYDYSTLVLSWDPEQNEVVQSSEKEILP
UniProt Q08357: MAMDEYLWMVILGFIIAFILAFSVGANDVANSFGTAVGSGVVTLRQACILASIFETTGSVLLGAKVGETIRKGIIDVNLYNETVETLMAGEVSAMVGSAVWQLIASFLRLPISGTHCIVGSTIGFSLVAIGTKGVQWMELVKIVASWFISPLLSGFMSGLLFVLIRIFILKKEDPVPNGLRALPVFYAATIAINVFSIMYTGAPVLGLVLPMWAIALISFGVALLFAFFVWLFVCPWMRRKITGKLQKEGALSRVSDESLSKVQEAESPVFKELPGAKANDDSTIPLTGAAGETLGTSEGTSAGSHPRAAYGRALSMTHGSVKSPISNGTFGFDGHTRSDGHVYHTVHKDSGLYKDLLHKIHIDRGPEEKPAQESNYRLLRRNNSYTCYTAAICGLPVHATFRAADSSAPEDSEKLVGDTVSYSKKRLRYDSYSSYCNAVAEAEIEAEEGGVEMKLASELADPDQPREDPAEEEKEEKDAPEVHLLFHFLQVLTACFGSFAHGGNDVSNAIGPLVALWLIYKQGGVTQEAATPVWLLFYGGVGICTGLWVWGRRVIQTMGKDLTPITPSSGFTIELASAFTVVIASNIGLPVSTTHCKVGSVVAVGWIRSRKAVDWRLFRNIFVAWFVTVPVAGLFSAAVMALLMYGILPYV
UniProt Q04760: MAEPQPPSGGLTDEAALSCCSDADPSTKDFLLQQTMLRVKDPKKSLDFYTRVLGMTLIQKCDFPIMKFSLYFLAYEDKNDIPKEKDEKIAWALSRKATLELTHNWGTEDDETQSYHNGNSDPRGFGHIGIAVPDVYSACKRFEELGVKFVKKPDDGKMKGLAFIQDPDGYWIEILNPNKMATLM
UniProt Q03113, whole entry: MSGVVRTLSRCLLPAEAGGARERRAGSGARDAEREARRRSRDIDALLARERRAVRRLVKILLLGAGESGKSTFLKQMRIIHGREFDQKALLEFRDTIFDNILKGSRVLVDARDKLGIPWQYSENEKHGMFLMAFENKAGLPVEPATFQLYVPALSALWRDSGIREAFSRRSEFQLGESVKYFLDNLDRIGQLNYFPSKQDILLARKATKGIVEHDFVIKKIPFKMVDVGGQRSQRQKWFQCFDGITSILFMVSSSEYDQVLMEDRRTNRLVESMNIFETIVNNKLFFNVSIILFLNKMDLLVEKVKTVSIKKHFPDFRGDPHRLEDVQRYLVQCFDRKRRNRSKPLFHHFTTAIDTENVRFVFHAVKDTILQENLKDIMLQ

Compound: CN[C@@H]1C[C@H]2O[C@@](C)([C@@H]1OC)n1c3ccccc3c3c4c(c5c6ccccc6n2c5c31)C(=O)NC4 [staurosporine]
Test: log2 fold change of tryptic peptide abundance, ligand vs vehicle (limited proteolysis) (log2 ratio); higher = more trypsin-susceptible (destabilized)
Details: ligand concentration: 20 uM; sample: K562 cleared lysate; digestion: 4 min, 22 C (HT-PELSA RT4min, Orbitrap Astral)

Row | Target | log2 fold change
1 | SP3 (peptide sequence: VQVVDEEGDQQHQEGK, peptide start residue: 578) (UniProt Q02447) | -0.142
2 | BNIP2 (peptide sequence: YLMDNLFK, peptide start residue: 185) (UniProt Q12982) | 0.21
3 | NEXN (peptide sequence: LTFEELER, peptide start residue: 249) (UniProt Q0ZGT2) | 0.373
4 | UniProt P98168 (peptide sequence: SSLYIHSK, peptide start residue: 433) | 0.306
5 | SP2 (peptide sequence: APHLSGTSK, peptide start residue: 391) (UniProt Q02086) | 0.273
6 | LMNB2 (peptide sequence: EQEMTEMR, peptide start residue: 357) (UniProt Q03252) | 0.44
7 | UniProt Q12905 (peptide sequence: ILSHGGFRK, peptide start residue: 320) | 0.48
8 | ZBED6 (peptide sequence: GKPGSHLGTSTLQR, peptide start residue: 161) (UniProt P86452) | 0.289
9 | SLC20A2 (peptide sequence: SPISNGTFGFDGHTR, peptide start residue: 324) (UniProt Q08357) | 0.885
10 | GLO1 (peptide sequence: DFLLQQTMLR, peptide start residue: 29) (UniProt Q04760) | -0.102
11 | GNA12 (peptide sequence: CLLPAEAGGAR, peptide start residue: 11) (UniProt Q03113) | 0.0374

A different layout for part of the listing above.
ZBED6 (peptide sequence: GKPGSHLGTSTLQR, peptide start residue: 161) (UniProt P86452)
  log2 fold change: 0.289
SLC20A2 (peptide sequence: SPISNGTFGFDGHTR, peptide start residue: 324) (UniProt Q08357)
  log2 fold change: 0.885
